This is an account of results in paper doi:10.1101/2021.06.17.448349.

By UniProt entry, the sequences of proteins in these tests, tags left out.
UniProt P68363: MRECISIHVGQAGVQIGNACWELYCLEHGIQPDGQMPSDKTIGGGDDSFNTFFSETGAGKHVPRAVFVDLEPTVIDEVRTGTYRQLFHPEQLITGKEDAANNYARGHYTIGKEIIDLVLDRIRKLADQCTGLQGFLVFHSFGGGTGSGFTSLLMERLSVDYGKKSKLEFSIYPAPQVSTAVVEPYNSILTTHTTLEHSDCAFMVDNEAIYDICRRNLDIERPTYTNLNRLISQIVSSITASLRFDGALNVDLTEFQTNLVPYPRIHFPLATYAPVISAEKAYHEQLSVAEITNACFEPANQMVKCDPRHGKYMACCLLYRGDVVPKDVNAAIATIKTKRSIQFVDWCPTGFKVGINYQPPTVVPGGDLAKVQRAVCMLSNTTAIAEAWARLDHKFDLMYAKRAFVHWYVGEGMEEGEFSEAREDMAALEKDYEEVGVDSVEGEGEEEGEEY
UniProt P11137: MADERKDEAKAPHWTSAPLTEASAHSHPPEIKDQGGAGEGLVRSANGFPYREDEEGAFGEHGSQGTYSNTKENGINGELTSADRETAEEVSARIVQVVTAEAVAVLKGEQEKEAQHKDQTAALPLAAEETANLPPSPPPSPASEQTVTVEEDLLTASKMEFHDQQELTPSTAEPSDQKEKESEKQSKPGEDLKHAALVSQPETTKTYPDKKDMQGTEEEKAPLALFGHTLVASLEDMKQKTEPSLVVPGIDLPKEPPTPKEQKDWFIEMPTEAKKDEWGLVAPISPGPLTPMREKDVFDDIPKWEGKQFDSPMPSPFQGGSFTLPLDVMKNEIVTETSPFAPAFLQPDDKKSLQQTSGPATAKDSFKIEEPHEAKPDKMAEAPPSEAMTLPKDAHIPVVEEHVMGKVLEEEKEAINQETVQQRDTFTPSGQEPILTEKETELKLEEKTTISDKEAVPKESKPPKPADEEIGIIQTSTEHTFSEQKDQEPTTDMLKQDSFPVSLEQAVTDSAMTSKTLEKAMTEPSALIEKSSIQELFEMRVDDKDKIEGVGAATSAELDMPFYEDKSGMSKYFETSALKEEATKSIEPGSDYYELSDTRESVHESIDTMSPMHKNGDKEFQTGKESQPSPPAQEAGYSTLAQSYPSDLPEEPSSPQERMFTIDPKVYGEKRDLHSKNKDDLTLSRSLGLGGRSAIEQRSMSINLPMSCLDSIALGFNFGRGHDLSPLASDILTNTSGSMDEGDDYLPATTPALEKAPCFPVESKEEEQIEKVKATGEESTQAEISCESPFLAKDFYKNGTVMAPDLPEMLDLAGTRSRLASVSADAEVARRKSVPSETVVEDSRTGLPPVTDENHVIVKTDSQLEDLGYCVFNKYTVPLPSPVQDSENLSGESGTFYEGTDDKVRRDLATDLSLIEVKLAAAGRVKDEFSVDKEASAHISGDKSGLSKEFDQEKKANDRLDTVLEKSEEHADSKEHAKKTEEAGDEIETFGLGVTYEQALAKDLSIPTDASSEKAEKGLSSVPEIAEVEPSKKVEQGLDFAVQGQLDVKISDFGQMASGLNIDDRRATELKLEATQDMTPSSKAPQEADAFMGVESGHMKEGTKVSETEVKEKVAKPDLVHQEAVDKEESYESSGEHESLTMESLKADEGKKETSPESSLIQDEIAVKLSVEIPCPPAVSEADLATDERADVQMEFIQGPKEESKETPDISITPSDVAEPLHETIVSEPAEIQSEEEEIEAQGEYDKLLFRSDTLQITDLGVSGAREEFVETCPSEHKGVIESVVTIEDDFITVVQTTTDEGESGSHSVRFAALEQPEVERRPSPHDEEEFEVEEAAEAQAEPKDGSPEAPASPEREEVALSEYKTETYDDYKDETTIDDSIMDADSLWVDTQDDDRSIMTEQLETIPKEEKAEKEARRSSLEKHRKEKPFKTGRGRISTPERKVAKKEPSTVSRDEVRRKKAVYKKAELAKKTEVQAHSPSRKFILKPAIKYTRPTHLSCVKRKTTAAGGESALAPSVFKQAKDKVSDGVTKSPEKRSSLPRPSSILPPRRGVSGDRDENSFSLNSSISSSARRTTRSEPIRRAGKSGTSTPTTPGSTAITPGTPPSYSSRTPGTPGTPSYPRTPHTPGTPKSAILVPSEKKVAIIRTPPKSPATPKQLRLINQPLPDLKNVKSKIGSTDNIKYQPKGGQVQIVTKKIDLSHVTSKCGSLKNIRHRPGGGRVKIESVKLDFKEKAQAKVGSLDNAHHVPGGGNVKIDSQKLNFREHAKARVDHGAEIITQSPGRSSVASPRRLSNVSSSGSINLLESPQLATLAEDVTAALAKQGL
UniProt P46821: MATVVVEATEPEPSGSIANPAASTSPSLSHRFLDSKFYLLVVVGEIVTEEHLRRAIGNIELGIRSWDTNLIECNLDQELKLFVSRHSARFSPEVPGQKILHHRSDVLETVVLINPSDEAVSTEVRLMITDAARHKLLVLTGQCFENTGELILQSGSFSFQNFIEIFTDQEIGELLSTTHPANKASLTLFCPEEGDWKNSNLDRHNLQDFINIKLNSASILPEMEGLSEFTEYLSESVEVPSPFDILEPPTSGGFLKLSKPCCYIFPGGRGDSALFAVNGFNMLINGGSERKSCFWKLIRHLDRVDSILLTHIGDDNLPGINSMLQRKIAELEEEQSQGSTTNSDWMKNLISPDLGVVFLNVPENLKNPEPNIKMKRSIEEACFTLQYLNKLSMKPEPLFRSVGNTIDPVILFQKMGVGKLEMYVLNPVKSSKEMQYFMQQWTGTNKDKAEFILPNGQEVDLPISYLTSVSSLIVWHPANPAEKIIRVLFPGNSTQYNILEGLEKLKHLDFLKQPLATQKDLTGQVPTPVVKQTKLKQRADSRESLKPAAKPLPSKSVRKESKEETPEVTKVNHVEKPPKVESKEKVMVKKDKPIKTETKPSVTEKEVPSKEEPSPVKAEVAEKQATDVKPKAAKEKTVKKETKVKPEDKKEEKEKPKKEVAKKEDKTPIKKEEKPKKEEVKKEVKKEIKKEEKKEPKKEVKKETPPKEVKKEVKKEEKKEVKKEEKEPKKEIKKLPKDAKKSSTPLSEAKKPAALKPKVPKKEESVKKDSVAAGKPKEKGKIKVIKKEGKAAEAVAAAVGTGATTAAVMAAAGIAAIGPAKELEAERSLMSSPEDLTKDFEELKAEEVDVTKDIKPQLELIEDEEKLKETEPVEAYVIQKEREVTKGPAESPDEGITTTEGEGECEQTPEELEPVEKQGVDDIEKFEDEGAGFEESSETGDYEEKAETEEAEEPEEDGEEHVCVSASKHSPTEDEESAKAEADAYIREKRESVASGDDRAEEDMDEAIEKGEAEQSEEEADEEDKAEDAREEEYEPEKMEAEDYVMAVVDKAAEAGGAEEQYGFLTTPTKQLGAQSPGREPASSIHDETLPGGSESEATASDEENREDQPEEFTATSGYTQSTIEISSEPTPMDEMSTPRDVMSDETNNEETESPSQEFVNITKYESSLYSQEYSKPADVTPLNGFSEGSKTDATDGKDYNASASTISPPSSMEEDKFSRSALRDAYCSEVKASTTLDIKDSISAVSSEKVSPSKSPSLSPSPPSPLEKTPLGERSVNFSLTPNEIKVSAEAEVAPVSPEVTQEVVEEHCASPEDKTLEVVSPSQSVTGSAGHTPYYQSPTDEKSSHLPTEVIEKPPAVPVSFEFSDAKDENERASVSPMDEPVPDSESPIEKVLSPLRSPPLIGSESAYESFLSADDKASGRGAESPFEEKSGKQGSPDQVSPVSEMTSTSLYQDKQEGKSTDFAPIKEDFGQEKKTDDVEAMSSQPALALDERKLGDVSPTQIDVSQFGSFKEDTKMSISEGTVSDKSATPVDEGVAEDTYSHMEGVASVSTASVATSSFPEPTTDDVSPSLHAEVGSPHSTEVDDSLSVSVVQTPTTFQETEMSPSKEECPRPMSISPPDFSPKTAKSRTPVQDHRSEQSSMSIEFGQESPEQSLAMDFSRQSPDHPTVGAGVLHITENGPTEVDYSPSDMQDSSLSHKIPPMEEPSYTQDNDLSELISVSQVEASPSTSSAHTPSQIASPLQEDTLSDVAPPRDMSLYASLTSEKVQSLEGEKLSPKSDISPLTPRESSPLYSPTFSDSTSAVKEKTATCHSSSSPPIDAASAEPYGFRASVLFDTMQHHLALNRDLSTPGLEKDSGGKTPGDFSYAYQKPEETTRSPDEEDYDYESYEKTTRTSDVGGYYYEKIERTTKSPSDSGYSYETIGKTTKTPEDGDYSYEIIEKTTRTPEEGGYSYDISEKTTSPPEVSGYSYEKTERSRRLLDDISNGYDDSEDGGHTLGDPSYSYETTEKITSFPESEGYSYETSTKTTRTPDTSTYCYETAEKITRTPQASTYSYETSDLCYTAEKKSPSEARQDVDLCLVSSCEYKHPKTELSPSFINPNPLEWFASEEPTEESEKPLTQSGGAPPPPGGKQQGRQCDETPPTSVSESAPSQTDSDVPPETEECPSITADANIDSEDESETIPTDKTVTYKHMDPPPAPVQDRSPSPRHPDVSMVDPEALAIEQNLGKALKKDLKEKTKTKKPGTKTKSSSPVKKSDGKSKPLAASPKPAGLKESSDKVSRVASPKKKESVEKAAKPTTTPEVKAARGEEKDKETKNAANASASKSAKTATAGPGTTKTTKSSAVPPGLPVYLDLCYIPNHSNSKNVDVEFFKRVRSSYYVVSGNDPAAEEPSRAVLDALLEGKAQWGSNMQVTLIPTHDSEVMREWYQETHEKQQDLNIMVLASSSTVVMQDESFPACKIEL

The assay has as its target APEX2-tagged Tubulin α 1b (UniProt P68363). As to the kind of experiment: proximity labelling.

These are yes or no findings as the source states them, for the method shown. In cells and extracts the contact can be indirect. Here binding means that the protein was enriched with, or labelled near, the bait; the list need not be complete.

Turning to MAP2 (from UniProt P11137 1-1827), the binding result was “binds”. With MAP1B (from UniProt P46821), the binding entry was “binds”.
